Laboratory results: PubChem BioAssay AID1259308 (NCATS, 2017)
Purpose: 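Knock-downs that increase output of a recombinant reporter protein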 (primary screen). Cell system: human HEK293 embryonic kidney cells stably expressing firefly luciferase (HEK-CMV-Luc2-Hygro). Knock-down reagent: single siRNA against human genes, 0.8 pmol siRNA per well. Duration: 72 h. Measured: 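Reporter luminescence and viable-cell signal on separate replicate plates, given as percent of non-targeting control and median/MAD z-scores, plus per-cell luciferase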. Scale: total luciferase, z-score and total luciferase, % of control: higher = more reporter protein produced. Call rule: 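Active when the median/MAD z-score for overall luciferase is greater than 3; a gene was taken forward for validation with new siRNAs if at least two of its three siRNAs passed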. Meaning of the calls: active = raised luciferase; inactive = no rise.
The deposit covers about 59,000 reagents; below is an unselected part. Over the whole deposit, about 1,510 (2.6%) got an active call. 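Calls use total luciferase alone and ignore viability, so some active siRNAs may act by altering cell number.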 Reagents against one gene are numbered here. Further read-outs or replicates are left out here. Reagent sequences are not shown.

The opening 2 entries, to show the layout:
{"gene":"WDR5B","reagent":1,"total luciferase, z-score":-2.31,"total luciferase, % of control":35.9,"activity call":"inactive"}
{"gene":"WDR5B","reagent":2,"total luciferase, z-score":-0.474,"total luciferase, % of control":72.5,"activity call":"inactive"}

The listing, repeating the preview:
{"gene":"WDR5B","reagent":1,"total luciferase, z-score":-2.31,"total luciferase, % of control":35.9,"activity call":"inactive"}
{"gene":"WDR5B","reagent":2,"total luciferase, z-score":-0.474,"total luciferase, % of control":72.5,"activity call":"inactive"}
{"gene":"WDR5B","reagent":3,"total luciferase, z-score":-2.21,"total luciferase, % of control":38,"activity call":"inactive"}
{"gene":"MYO5B","reagent":1,"total luciferase, z-score":-0.491,"total luciferase, % of control":72.1,"activity call":"inactive"}
{"gene":"MYO5B","reagent":2,"total luciferase, z-score":-0.338,"total luciferase, % of control":75.2,"activity call":"inactive"}
{"gene":"MYO5B","reagent":3,"total luciferase, z-score":-0.00812,"total luciferase, % of control":81.7,"activity call":"inactive"}
{"gene":"ANKRD36C","reagent":1,"total luciferase, z-score":-1.53,"total luciferase, % of control":51.5,"activity call":"inactive"}
{"gene":"ANKRD36C","reagent":2,"total luciferase, z-score":-0.987,"total luciferase, % of control":62.2,"activity call":"inactive"}
{"gene":"ANKRD36C","reagent":3,"total luciferase, z-score":1.02,"total luciferase, % of control":102,"activity call":"inactive"}
{"gene":"ZNF826P","reagent":1,"total luciferase, z-score":-0.507,"total luciferase, % of control":71.8,"activity call":"inactive"}
{"gene":"ZNF826P","reagent":2,"total luciferase, z-score":0.341,"total luciferase, % of control":88.7,"activity call":"inactive"}
{"gene":"ZNF826P","reagent":3,"total luciferase, z-score":-0.762,"total luciferase, % of control":66.7,"activity call":"inactive"}
{"gene":"IZUMO1R","reagent":1,"total luciferase, z-score":1.08,"total luciferase, % of control":103,"activity call":"inactive"}
{"gene":"IZUMO1R","reagent":2,"total luciferase, z-score":-2.12,"total luciferase, % of control":39.8,"activity call":"inactive"}
{"gene":"IZUMO1R","reagent":3,"total luciferase, z-score":0.276,"total luciferase, % of control":87.4,"activity call":"inactive"}
{"gene":"ZNF337","reagent":1,"total luciferase, z-score":0.515,"total luciferase, % of control":92.1,"activity call":"inactive"}
{"gene":"ZNF337","reagent":2,"total luciferase, z-score":-0.518,"total luciferase, % of control":71.6,"activity call":"inactive"}
{"gene":"ZNF337","reagent":3,"total luciferase, z-score":2.78,"total luciferase, % of control":137,"activity call":"inactive"}
{"gene":"SOST","reagent":1,"total luciferase, z-score":-1.13,"total luciferase, % of control":59.4,"activity call":"inactive"}
{"gene":"SOST","reagent":2,"total luciferase, z-score":1.15,"total luciferase, % of control":105,"activity call":"inactive"}
{"gene":"SOST","reagent":3,"total luciferase, z-score":0.199,"total luciferase, % of control":85.8,"activity call":"inactive"}
{"gene":"CCAR2","reagent":1,"total luciferase, z-score":-1.48,"total luciferase, % of control":52.4,"activity call":"inactive"}
{"gene":"CCAR2","reagent":2,"total luciferase, z-score":0.732,"total luciferase, % of control":96.4,"activity call":"inactive"}
{"gene":"CCAR2","reagent":3,"total luciferase, z-score":-0.429,"total luciferase, % of control":73.4,"activity call":"inactive"}
{"gene":"LINC03122","reagent":1,"total luciferase, z-score":-0.224,"total luciferase, % of control":77.4,"activity call":"inactive"}
{"gene":"LINC03122","reagent":2,"total luciferase, z-score":0.145,"total luciferase, % of control":84.8,"activity call":"inactive"}
{"gene":"LINC03122","reagent":3,"total luciferase, z-score":-0.323,"total luciferase, % of control":75.5,"activity call":"inactive"}
{"gene":"OR4F29","reagent":1,"total luciferase, z-score":0.099,"total luciferase, % of control":83.9,"activity call":"inactive"}
{"gene":"OR4F29","reagent":2,"total luciferase, z-score":0.93,"total luciferase, % of control":100,"activity call":"inactive"}
{"gene":"OR4F29","reagent":3,"total luciferase, z-score":-2.29,"total luciferase, % of control":36.3,"activity call":"inactive"}
{"gene":"THNSL1","reagent":1,"total luciferase, z-score":0.0293,"total luciferase, % of control":82.5,"activity call":"inactive"}
{"gene":"THNSL1","reagent":2,"total luciferase, z-score":-0.884,"total luciferase, % of control":64.3,"activity call":"inactive"}
{"gene":"THNSL1","reagent":3,"total luciferase, z-score":0.235,"total luciferase, % of control":86.6,"activity call":"inactive"}
{"gene":"UPF2","reagent":1,"total luciferase, z-score":0.277,"total luciferase, % of control":87.4,"activity call":"inactive"}
{"gene":"UPF2","reagent":2,"total luciferase, z-score":0.699,"total luciferase, % of control":95.8,"activity call":"inactive"}
{"gene":"UPF2","reagent":3,"total luciferase, z-score":0.812,"total luciferase, % of control":98,"activity call":"inactive"}
{"gene":"DDX6","reagent":1,"total luciferase, z-score":0.826,"total luciferase, % of control":98.3,"activity call":"inactive"}
{"gene":"DDX6","reagent":2,"total luciferase, z-score":3.36,"total luciferase, % of control":149,"activity call":"active"}
{"gene":"DDX6","reagent":3,"total luciferase, z-score":2.03,"total luciferase, % of control":122,"activity call":"inactive"}
{"gene":"SGSM1","reagent":1,"total luciferase, z-score":0.374,"total luciferase, % of control":89.3,"activity call":"inactive"}
{"gene":"SGSM1","reagent":2,"total luciferase, z-score":0.79,"total luciferase, % of control":97.6,"activity call":"inactive"}
{"gene":"SGSM1","reagent":3,"total luciferase, z-score":0.285,"total luciferase, % of control":87.6,"activity call":"inactive"}
